For the test, the system named is BDF1 mice, Adenocarcinoma 755 s.c., tumor weight T/C. The experiment in a line: NCI In Vivo Anticancer Drug Screen. Data for tumor model Adenocarcinoma 755 (subcutaneous) in B6D2F1 (BDF1) mice. Particulars: T/C endpoint: mean tumor weight, schedule: Q01DX011 (ip), higher T/C = larger tumour; for T/C: evaluated on day 12. Put shortly: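 Values express treated (T) relative to vehicle-dosed control (C) animals, based on survival or tumour size measured after compound treatment of mice bearing a transplanted tumour.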

Where [1] appears, read: dose: 100.0 mg/kg/injection, vehicle: methylcellulose (MC).
Setting [2] is: dose: 200.0 mg/kg/injection, vehicle: methylcellulose (MC).

The list shows only some results of the screen, not a fair sample: it gathers tests that were run many times, whatever their T/C, doses with no T/C, and many T/C values between a quarter and a half above the control. Further doses and runs are listed elsewhere. T/C gives the treated animals as a percentage of the vehicle group. Schedules are NCI's codes, taken here to give the interval after Q, in days (D) or hours (H), and the number of doses after X. Some T/C values are followed by the survivors on the day toxicity was checked, most often the fifth; without a count, all were alive then. Some doses were run more than once; the values are given in rising order. Some doses have a count of surviving animals in place of a T/C: the source holds a T/C of zero for them, seemingly a mark for toxic or unscored doses. Survivors were counted at the toxicity check, usually on the fifth day, unless a day is given; later deaths do not show.

In the case of `O=c1[nH]cnc2c1ncn2C1CCCCC1`, the T/C by setting is: (dose: 93.0 mg/kg/injection, vehicle: carboxymethylcellulose (CMC)) 131 % of control; (dose: 185.0 mg/kg/injection, vehicle: carboxymethylcellulose (CMC)) 71 [7 of 10 alive], 74, 85, 86 % of control [9 of 10 alive].
`CCCN(C)/N=N/c1nc[nH]c1C(N)=O`: the survivor count reads like this: (dose: 50.0 mg/kg/injection, vehicle: carboxymethylcellulose (CMC)) 5 of 10; (dose: 60.0 mg/kg/injection, vehicle: carboxymethylcellulose (CMC)) 2 of 9.
With `Nc1nc(N)c2[nH]cnc2n1`, for the setting “dose: 139.9 mg/kg/injection, vehicle: carboxymethylcellulose (CMC)”, the survivor count is given as 3 of 10.
Consider `c1ccc2c(c1)ccc1cc3c(ccc4ccccc43)cc12`, for which the T/C reads like this: under setting [1], 15, 29, 29 [8 of 10 alive], 83 % of control; under setting [2], 21 [9 of 10 alive], 41, 43 % of control [9 of 10 alive]. For the same compound, the survivor count is 2 of 10 under setting [1]; 4 of 10 and 5 of 10 under setting [2]; 2 of 10 (dose: 400.0 mg/kg/injection, vehicle: methylcellulose (MC)); 5 of 10 (dose: 600.0 mg/kg/injection, vehicle: methylcellulose (MC)); 6 of 10 (dose: 800.0 mg/kg/injection, vehicle: other).

Source of the values: PubChem BioAssay AID180 (DTP/NCI, 2004).
